The values that follow come from paper PMC11334570.

Amino acid sequences for entries named in this document (tags omitted).
UniProt O00425: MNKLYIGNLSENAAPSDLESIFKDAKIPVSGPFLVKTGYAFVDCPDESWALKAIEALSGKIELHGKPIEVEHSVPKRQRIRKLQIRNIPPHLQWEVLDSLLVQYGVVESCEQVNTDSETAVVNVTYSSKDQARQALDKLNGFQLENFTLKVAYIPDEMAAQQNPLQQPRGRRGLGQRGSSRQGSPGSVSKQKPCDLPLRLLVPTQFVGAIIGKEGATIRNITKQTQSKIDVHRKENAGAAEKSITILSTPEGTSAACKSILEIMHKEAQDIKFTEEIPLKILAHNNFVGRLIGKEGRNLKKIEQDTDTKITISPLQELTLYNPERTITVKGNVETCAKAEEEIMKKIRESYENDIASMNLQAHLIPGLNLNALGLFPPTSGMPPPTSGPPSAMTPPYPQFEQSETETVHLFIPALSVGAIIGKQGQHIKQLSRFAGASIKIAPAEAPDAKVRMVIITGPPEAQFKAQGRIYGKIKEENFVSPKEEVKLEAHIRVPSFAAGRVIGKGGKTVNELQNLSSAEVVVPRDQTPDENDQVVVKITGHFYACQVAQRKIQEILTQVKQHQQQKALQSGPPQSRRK

No constants are given. Whether binding was seen depends on the method and setting. In cells and extracts the contact can be indirect. These calls come from enrichment with a bait or labelling near it, and not all partners need be listed.

The target of this test is T1, Ubiquitin-specific protease 15 (USP15), endogenous (human (endogenous in SGC7901)) (UniProt Q9Y4E8).
T1 sequence: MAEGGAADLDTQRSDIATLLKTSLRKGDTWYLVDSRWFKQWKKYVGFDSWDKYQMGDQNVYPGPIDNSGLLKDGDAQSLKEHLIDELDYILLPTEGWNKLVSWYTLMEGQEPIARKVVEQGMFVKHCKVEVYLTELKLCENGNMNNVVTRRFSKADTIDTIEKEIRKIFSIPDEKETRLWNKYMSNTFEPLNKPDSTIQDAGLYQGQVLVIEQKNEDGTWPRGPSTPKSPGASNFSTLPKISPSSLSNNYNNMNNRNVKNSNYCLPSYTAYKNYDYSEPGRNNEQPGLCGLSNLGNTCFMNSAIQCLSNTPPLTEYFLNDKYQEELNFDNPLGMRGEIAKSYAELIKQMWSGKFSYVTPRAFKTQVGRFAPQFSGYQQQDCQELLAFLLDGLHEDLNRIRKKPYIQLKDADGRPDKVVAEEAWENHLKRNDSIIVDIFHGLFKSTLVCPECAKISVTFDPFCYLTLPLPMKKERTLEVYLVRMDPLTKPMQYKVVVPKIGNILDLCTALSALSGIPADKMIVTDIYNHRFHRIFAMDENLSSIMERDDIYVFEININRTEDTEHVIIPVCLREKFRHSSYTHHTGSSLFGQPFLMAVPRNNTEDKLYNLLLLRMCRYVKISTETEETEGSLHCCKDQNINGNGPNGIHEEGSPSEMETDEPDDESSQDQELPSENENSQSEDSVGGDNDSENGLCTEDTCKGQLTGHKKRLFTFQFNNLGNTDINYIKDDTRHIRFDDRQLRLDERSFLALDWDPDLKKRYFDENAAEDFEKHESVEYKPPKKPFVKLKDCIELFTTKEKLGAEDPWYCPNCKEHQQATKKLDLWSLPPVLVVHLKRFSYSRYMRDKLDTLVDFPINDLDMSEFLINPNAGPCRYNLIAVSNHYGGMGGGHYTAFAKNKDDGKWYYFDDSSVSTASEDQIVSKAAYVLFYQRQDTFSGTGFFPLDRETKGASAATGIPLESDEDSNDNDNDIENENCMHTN
Briefly: affinity purification with mass spectrometry; CoIP-MS: SGC7901 cell lysates immunoprecipitated with anti-USP15 antibody, IgG as negative control; SDS-PAGE, silver staining, MS.

On to “Insulin like growth factor 2 mRNA binding protein 3 (IGF2BP3), endogenous (from UniProt O00425 1-579)”, for which the binding entry is given as “binds”.

B1: Hexokinase domain containing 1 (HKDC1), endogenous (enzyme, UniProt Q2TB90 1-917)
chain: MFAVHLMAFYFSKLKEDQIKKVDRFLYHMRLSDDTLLDIMRRFRAEMEKGLAKDTNPTAAVKMLPTFVRAIPDGSENGEFLSLDLGGSKFRVLKVQVAEEGKRHVQMESQFYPTPNEIIRGNGTELFEYVADCLADFMKTKDLKHKKLPLGLTFSFPCRQTKLEEGVLLSWTKKFKARGVQDTDVVSRLTKAMRRHKDMDVDILALVNDTVGTMMTCAYDDPYCEVGVIIGTGTNACYMEDMSNIDLVEGDEGRMCINTEWGAFGDDGALEDIRTEFDRELDLGSLNPGKQLFEKMISGLYLGELVRLILLKMAKAGLLFGGEKSSALHTKGKIETRHVAAMEKYKEGLANTREILVDLGLEPSEADCIAVQHVCTIVSFRSANLCAAALAAILTRLRENKKVERLRTTVGMDGTLYKIHPQYPKRLHKVVRKLVPSCDVRFLLSESGSTKGAAMVTAVASRVQAQRKQIDRVLALFQLTREQLVDVQAKMRAELEYGLKKKSHGLATVRMLPTYVCGLPDGTEKGKFLALDLGGTNFRVLLVKIRSGRRSVRMYNKIFAIPLEIMQGTGEELFDHIVQCIADFLDYMGLKGASLPLGFTFSFPCRQMSIDKGTLIGWTKGFKATDCEGEDVVDMLREAIKRRNEFDLDIVAVVNDTVGTMMTCGYEDPNCEIGLIAGTGSNMCYMEDMRNIEMVEGGEGKMCINTEWGGFGDNGCIDDIWTRYDTEVDEGSLNPGKQRYEKMTSGMYLGEIVRQILIDLTKQGLLFRGQISERLRTRGIFETKFLSQIESDRLALLQVRRILQQLGLDSTCEDSIVVKEVCGAVSRRAAQLCGAGLAAIVEKRREDQGLEHLRITVGVDGTLYKLHPHFSRILQETVKELAPRCDVTFMLSEDGSGKGAALITAVAKRLQQAQKEN
With B1, the binding result is listed as “binds”.
